# PubChem BioAssay AID686938 – Drosophila RNAi Screening Center – 2013
# Assay: 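Knock-downs reducing store-operated calcium influx in Drosophila cells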 (primary screen)
# System: Drosophila S2R+ cells
# Reagents: long dsRNA against Drosophila genes, about 0.25 µg dsRNA per well, roughly 10,000 cells
# Duration: 5 days of knock-down before the calcium assay
# Challenge: thapsigargin (SERCA pump blocker) to empty calcium stores; entry signal taken 4 min after adding it
# Measurement: 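Duplicate raw fluo-4 intensities per well from a plate reader, at rest and four minutes after thapsigargin emptied calcium stores; entry-to-rest ratio filled for only some wells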
# Scale: calcium entry signal: higher = stronger calcium signal after store depletion; entry to resting ratio: higher = more calcium entry relative to resting level; resting calcium signal: higher = higher resting calcium signal
# Rule for the call: 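Called when the plate z-score of the entry-to-rest ratio, mean of duplicates, falls below −3; wells with low overall dye signal (Fmax z below −2) or more than five off-targets excluded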
# Calls: active = strongly reduced calcium entry; inactive = no strong reduction
# In all, the deposit lists about 23,000 reagents; shown is an unselected part of those that have a named target and a result. Over the whole deposit, 75 (0.33%) got an active call. 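Raw plate signals without normalisation; calls rest on plate z-scores that were not deposited; ratio present for only 364 wells.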 A plus sign joins genes that one reagent is predicted to hit. No sequences are given here. The record does not give: the dose of the treatment.
predicted target,amplicon,"calcium entry signal, replicate 1 (fluorescence units)","calcium entry signal, replicate 2 (fluorescence units)",entry to resting ratio,"resting calcium signal, replicate 1 (fluorescence units)","resting calcium signal, replicate 2 (fluorescence units)",call
CG2685,DRSC18463,3.25e7,4.21e7,2,1.61e7,1.87e7,inactive
Nup37,DRSC14419,3.59e7,6.09e7,,1.83e7,2.43e7,inactive
hh,DRSC16965,4.28e7,6.87e7,,2.12e7,2.81e7,inactive
Fkbp12,DRSC07425,4.93e7,4.56e7,,2.05e7,2.11e7,inactive
CG14221,DRSC19578,3.74e7,4.11e7,,2.06e7,1.83e7,inactive
Dhc64C,DRSC08656,4.74e7,3.82e7,,3.38e7,1.74e7,inactive
Adk1,DRSC15514,1.94e7,2.23e7,,1.02e7,1.19e7,inactive
Roc1b + Cdc5,DRSC08687,3.49e7,3.36e7,,1.92e7,1.80e7,inactive
gskt,DRSC14056,4.28e7,5.05e7,,1.96e7,1.95e7,inactive
CG42516 + Pbp49,DRSC06073,4.17e7,3.91e7,,1.74e7,1.63e7,inactive
Stat92E,DRSC16870,3.18e7,2.91e7,,1.45e7,1.36e7,inactive
achi,DRSC07276,3.16e7,3.60e7,,1.64e7,1.78e7,inactive
CG13561,DRSC04199,3.79e7,3.78e7,,1.95e7,1.80e7,inactive
CG4570,DRSC15602,4.40e7,3.46e7,,2.18e7,1.80e7,inactive
CG3527,DRSC18307,2.63e7,3.10e7,,1.52e7,1.71e7,inactive
CG32318 + Klp61F + Psf1,DRSC23255,1.59e7,4.09e7,,1.02e7,2.29e7,inactive
CG33061,DRSC09938,5.41e7,6.97e7,,2.46e7,2.72e7,inactive
CG33061,DRSC22897,3.73e7,4.06e7,,2.21e7,1.77e7,inactive
Yif1,DRSC15817,2.77e7,3.80e7,,1.48e7,1.50e7,inactive
Nemp,DRSC20206,2.92e7,3.03e7,,1.49e7,1.40e7,inactive
Ste:CG33238 + Ste:CG33241 + Ste:CG33236 + 11 more,DRSC19004,1.95e7,3.19e7,,9.99e6,1.39e7,inactive
Ste:CG33238 + Ste:CG33241 + Ste:CG33236 + 11 more,DRSC21260,4.02e7,5.05e7,,2.14e7,2.18e7,inactive
barr,DRSC03488,2.41e7,2.46e7,,1.66e7,1.55e7,inactive
Sps1,DRSC07549,3.12e7,3.76e7,,1.51e7,1.90e7,inactive
Vps13,DRSC06817,4.36e7,4.12e7,,2.07e7,1.97e7,inactive
RpL37-2,DRSC04584,3.72e7,3.93e7,,1.96e7,1.87e7,inactive
mask,DRSC15370,5.14e7,7.36e7,,3.22e7,3.71e7,inactive
mask,DRSC16005,3.13e7,3.49e7,,1.98e7,2.16e7,inactive
mask,DRSC16018,3.13e7,3.61e7,,1.90e7,2.09e7,inactive
Ets98B,DRSC16666,2.73e7,2.68e7,,1.42e7,1.36e7,inactive
CG8665,DRSC03098,3.75e7,6.84e7,,1.69e7,2.73e7,inactive
CG14053,DRSC17908,3.60e7,7.80e7,1.9,1.88e7,2.75e7,inactive
Tim13,DRSC09848,2.27e7,3.44e7,,1.14e7,1.60e7,inactive
CG5961,DRSC15927,3.48e7,5.06e7,,1.45e7,1.99e7,inactive
CG10081,DRSC05962,5.13e7,5.08e7,,2.25e7,2.36e7,inactive
Sptr,DRSC18719,2.40e7,2.89e7,,1.10e7,1.25e7,inactive
Hecw,DRSC18261,3.88e7,5.53e7,,1.92e7,2.54e7,inactive
Hecw,DRSC18276,3.83e7,5.91e7,,1.94e7,2.74e7,inactive
CG2691,DRSC19866,2.51e7,2.94e7,,1.38e7,1.66e7,inactive
CG34428,DRSC10119,3.26e7,4.10e7,,1.62e7,1.79e7,inactive
CG6484,DRSC06991,2.99e7,3.09e7,,1.48e7,1.55e7,inactive
CG7423,DRSC20044,4.87e7,3.82e7,,2.27e7,1.64e7,inactive
bel,DRSC16555,3.41e7,4.25e7,,2.10e7,2.85e7,active
lncRNA:CR42646,DRSC04759,2.92e7,6.26e7,,1.37e7,2.63e7,inactive
SmydA-4,DRSC19390,3.98e7,4.50e7,,1.84e7,2.43e7,inactive
SmydA-4,DRSC21866,1.81e7,3.16e7,,1.02e7,1.66e7,inactive
CG12682,DRSC17873,3.46e7,4.89e7,,1.77e7,2.27e7,inactive
CG3108,DRSC18280,2.82e7,2.94e7,,1.38e7,1.37e7,inactive
CG7536,DRSC20050,3.26e7,3.87e7,,1.66e7,1.87e7,inactive
CG32532,DRSC19556,3.23e7,4.11e7,,1.97e7,1.90e7,inactive
CG32532,DRSC19557,4.19e7,5.29e7,,2.22e7,2.35e7,inactive
CG32532,DRSC19558,3.21e7,4.28e7,,1.96e7,1.99e7,inactive
CG32532,DRSC21370,3.66e7,3.61e7,,2.07e7,1.67e7,inactive
CG15472,DRSC18055,2.77e7,4.23e7,,1.36e7,1.91e7,inactive
mnb,DRSC20058,1.96e7,1.97e7,,1.25e7,1.20e7,inactive
mnb,DRSC20353,2.60e7,3.20e7,,1.40e7,1.59e7,inactive
mnb,DRSC23347,3.02e7,2.95e7,,2.03e7,1.52e7,inactive
CG13640,DRSC14639,3.03e7,2.86e7,,1.43e7,1.27e7,inactive
Sgs4,DRSC18715,3.28e7,6.97e7,2,1.67e7,2.77e7,inactive
Smyd4-4,DRSC05956,3.97e7,4.33e7,,1.79e7,2.03e7,inactive
Ttc7,DRSC04836,3.33e7,,,1.82e7,,inactive
dgrn,DRSC12154,3.98e7,4.75e7,,1.77e7,2.10e7,inactive
Fim,DRSC20243,2.91e7,3.23e7,,1.40e7,1.51e7,inactive
CG34462,DRSC10768,2.50e7,5.52e7,,1.20e7,2.33e7,inactive
Eip74EF,DRSC10613,2.20e7,2.65e7,,1.24e7,2.09e7,inactive
Eip74EF,DRSC11160,4.79e7,7.12e7,,2.36e7,2.85e7,inactive
CG30259,DRSC04164,3.56e7,4.39e7,,1.90e7,1.98e7,inactive
CG30259,DRSC04165,3.47e7,4.40e7,,1.80e7,2.12e7,inactive
Cpr47Ee,DRSC06343,1.72e7,2.26e7,,1.07e7,1.31e7,inactive
Cpr47Ee,DRSC23164,4.07e7,2.81e7,,2.02e7,1.38e7,inactive
CG15923,DRSC15129,4.76e7,4.06e7,,2.33e7,1.82e7,inactive
CG17580,DRSC06683,3.59e7,3.64e7,,1.87e7,1.63e7,inactive
CG7460,DRSC10850,3.82e7,4.63e7,,1.91e7,1.78e7,inactive
caup,DRSC11334,2.44e7,2.38e7,,1.39e7,1.18e7,inactive
caup,DRSC23050,3.76e7,4.31e7,,1.89e7,1.96e7,inactive
